# Paper PMC11361374
# Chains of the proteins cited; added tags and fusions are not shown. Residues count along the entry.
# UniProt P02545, residues 1-646: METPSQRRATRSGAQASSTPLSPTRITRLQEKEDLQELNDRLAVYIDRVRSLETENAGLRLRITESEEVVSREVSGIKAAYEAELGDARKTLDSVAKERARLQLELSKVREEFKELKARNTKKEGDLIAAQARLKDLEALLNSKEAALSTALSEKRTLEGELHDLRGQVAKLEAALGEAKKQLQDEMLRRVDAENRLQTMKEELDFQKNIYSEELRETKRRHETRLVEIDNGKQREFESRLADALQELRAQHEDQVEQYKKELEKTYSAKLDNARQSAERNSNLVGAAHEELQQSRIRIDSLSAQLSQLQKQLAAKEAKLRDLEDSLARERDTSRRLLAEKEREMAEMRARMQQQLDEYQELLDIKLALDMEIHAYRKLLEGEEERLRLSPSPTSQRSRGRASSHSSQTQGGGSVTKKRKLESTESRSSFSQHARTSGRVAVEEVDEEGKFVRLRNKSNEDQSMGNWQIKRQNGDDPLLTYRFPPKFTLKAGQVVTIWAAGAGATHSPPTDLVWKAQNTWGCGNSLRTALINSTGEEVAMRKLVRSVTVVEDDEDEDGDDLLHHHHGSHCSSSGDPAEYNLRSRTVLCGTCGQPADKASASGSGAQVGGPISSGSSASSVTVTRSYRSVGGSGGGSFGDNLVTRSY
# UniProt Q8NC56: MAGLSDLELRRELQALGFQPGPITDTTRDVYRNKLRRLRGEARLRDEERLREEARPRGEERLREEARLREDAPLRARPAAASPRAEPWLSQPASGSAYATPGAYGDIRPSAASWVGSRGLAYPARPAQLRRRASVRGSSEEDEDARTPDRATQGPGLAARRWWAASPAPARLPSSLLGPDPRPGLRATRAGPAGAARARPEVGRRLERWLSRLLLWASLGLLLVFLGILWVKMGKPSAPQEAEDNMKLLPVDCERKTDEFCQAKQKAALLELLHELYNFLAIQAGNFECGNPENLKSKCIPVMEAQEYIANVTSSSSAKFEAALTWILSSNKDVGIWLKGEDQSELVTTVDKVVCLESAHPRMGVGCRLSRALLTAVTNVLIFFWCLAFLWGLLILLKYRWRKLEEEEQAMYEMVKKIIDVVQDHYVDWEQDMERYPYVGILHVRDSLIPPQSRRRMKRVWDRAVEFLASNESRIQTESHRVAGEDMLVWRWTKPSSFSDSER
# UniProt Q13216: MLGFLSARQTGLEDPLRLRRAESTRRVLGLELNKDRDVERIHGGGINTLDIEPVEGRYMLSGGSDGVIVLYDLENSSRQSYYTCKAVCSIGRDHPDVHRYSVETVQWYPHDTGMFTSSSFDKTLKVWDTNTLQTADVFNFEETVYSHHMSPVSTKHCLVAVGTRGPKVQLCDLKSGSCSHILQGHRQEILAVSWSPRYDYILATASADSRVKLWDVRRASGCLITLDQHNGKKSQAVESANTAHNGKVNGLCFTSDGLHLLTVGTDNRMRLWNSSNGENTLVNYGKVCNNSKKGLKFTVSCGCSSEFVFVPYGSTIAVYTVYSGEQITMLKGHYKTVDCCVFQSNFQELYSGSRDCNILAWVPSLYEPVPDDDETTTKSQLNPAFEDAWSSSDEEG
# Results are given in words; binding and its absence hold for the method and conditions named. In cells and extracts the contact can be indirect. Some entries that bind do so weakly or less than the wild type.
# How the values were obtained:
# [1] = biological target: lamin A/C (human (endogenous in CS3BE patient-derived fibroblasts)) (UniProt P02545); assay: proximity ligation; Duolink PLA on fixed, permeabilised WT(HA-CSA) and CS-A cells with mouse anti-lamin A/C and rabbit anti-LEMD2; single antibodies as negative controls; foci per nucleus counted
# LEMD2-GFP = LEMD2-GFP (UniProt Q8NC56); assay: co-IP; GFP pulldown (GFP-Trap Magnetic Agarose) of LEMD2-GFP from lysates of WT(HA-CSA) cells overexpressing Flag-CSA + LEMD2-GFP; control GFP + Flag-CSA; 0.5% NP-40, 150 mM NaCl lysis buffer plus RIPA extract of the pellet; 4 h at 4°C; immunoblot
Substance,binding [1],binding (LEMD2-GFP)
LEMD2 (from UniProt Q8NC56 1-503),binds,–
HA-CSA (from UniProt Q13216 1-396),–,binds
Flag-CSA (from UniProt Q13216 1-396),–,binds
